Assay results as given in PMC2943901.

Biological target: myc tagged carboxyl terminus of palladin
Experiment: co-IP; myc tagged palladin constructs co-transfected with flag tagged MRTF into HEK-293 cells; lysed 36 h after transfection; IP with myc antibody, blots with myc and flag antibodies

binding	Binder
binds	flag tagged MRTF-B (protein, UniProt P59759 1-1080) MIDSSKKQPQGFPEILTAEDFEPFKEKECLEGSNQKSLKEVLQLRLQQRRTREQLVDQGIMPPLKSPAAFHEQIKSLERARTENFLKHKIRSRPDRSELVRMHILEETFAEPSLQATQMKLKRARLADDLNEKIAQRPGPMELVEKNILPVDSSVKEAIIGVVKEDYPHTHGEFSFDEDSSDALSPDQPASQESQGSAASPSEPKVSASPPPVTASTPAQFTSVSPAVPEFLKTPLTADQPPTRSTAPVLPTNTVSSAKSGPMLVKQSHPKNPNDKHRSKKCKDPKPRVKKLKYHQYIPPNQKGEKSEPQMDSNYARLLQQQQLFLQLQILSQQQQQQQQQHYNYQTILPAPIKTDKNSSSGSNSGSSSSMPARRPGPLPSSLDDLKVSELKTELKLRGLPVSGTKPDLIERLKPYQEVTSSNLATGSIVAVSSATIVTSNPEVTVALPVTTLHNAVTSSVSTFKADLALPATSSVPHVENAHSPLPISPSPSEQSSLSTDDTNMTDTFTEIMTMMSPSQLLCSSPLRVVSHDDSLSPSSSTLSTLELDAAEKDRKLQEKEKQIEELKRKLEQEQKLVEVLKMQLEVEKRGQQRPPDPQPSDPPHPFNTSDPKHGSVGSSIKDEASLPDCSSPQQPITVPGHSVGQPISTGSQTLVAKKTVVVKQEVPMAQAEQQNVVSQFYLSSQGQPPALVAQPQALLTTQTTQLLLPVSIQGSNVTSVQLPVGSLQLQTPAQGRVQAQPHVAAATQVPAAALPSALTSALPQKQEAFPQHVLGQPQPVRKVFTNSAPNTVLQYQRQPGPTNQQPFVSKTSNPALQSRTAPLAPLQNGPSLASKPSSPPPPQQFVVQHSLFATPITKTKDPPRYEEAIKQTRSTQPALPEVSSVHSQQMDDLFDILIKSGEISFPIKEEPSPISKMKPVTASITTMPVNTVVSRPPPQVQIAPPVSLEPVNSLSASLENQLEAFLDGTLPSATDTGPLQNSSEDRESFSLIEDLQNDLLSHSSMLYQSHSPMETSEAQLVSGTPCLSLDLSDSNLDNMEWLDITMPTTSSGLTPLSTTAPSMFSADFLDPQDLPLPWD
binds	flag tagged MRTF-A (protein, UniProt Q8K4J6-2 1-929) MPPLKSPAAFHEQRRSLERARTEDYLKRKIRSRPERAELVRMHILEETSAEPSLQAKQLKLKRARLADDLNEKIAQRPGPMELVEKNILPVESSLKEAIIVGQVNYPKVADSSSFDEDSSDALSPEQPASHESQGSVPSPLESRVSDPLPSATSISPTQVLSQLPMAPDPGETLFLAEQPPLPPAPLLPPSLANGSIVPTAKPAPTLIKQSQPKSASEKSQRSKKAKELKPKVKKLKYHQYIPPDQKQDKGAPAMDSSYAKILQQQQLFLQLQILNQQQQQQQQQHYNYQAILPAPPKPSAETPGSSAPTPSRSLSTSSSPSSGTPGPSGLARQSSTALAAKPGALPANLDDMKVAELKQELKLRSLPVSGTKTELIERLRAYQDQVSPAPGAPKAPATTSVLSKAGEVVVAFPAALLSTGSALVTAGLAPAEMVVATVTSNGMVKFGSTGSTPPVSPTPSERSLLSTGDENSTPGDAFGEMVTSPLTQLTLQASPLQIVKEEGARAASCCLSPGARAELEGLDKDQMLQEKDKQIEELTRMLQQKQQLVELLRLQLEQQKRAQQPAPASSPVKRESGFSSCQLSCQPQGSAHAFGSGLVVPTTNHGDTQAPAPESPPVVVKQEAGPPEPDLAPSSQLLLGSQGTSFLKRVSPPTLVTDSTGTHLILTVTNKSADGPGLPAGSPQQPLSQPGSPAPGPPAQMDLEHPPQPPFATPTSLLKKEPPGYEETVTQQPKQQENGSSSQHMDDLFDILIQSGEISADFKEPPSLPGKEKSPPAAAAYGPPLTPQPSPLSELPQAAPPPGSPTLPGRLEDFLESSTGLPLLTSGHEGPEPLSLIDDLHSQMLSSSAILDHPPSPMDTSELHFAPEPSSGMGLDLAVGHLDSMDWLELSSGGPVLSLAPLSTAAPSLFSMDFLDGHDLQLHWDSCL

These are yes or no findings as the source states them, for the method shown. In cells and extracts the contact can be indirect. Binding calls can cover weak binding; strength is not graded here. Sequences can lack the tags named with a protein.
